Results are given in words; binding and its absence hold for the method and conditions named. Binding seen in cells or lysates may run through a third protein. Some binding calls cover weakened binding; strength is not graded here.
Target: purified CypD-GST (UniProt P30405)
Assay: GST pull-down with purified proteins

The chains behind the UniProt entries cited, without tags or fusion partners. Residues count along the entry.
UniProt P30405, residues 30-207: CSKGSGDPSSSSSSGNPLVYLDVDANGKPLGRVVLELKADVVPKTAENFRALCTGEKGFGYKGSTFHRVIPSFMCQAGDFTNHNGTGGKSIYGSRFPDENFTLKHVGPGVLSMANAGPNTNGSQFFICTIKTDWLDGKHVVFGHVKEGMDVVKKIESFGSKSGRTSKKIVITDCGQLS

B1: purified p53Ψ (aa 102-243) (protein)
chain: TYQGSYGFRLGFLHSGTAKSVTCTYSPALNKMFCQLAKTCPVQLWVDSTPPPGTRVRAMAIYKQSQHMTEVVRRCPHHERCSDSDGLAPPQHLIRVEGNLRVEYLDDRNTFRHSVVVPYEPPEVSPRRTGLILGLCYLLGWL
Question: For B1, which binding is on record?
Answer: binds

Source: patent US20170211072A1
